{
  "source": "patent US20230173135A1",
  "about": "(priority 2020, published 2023)",
  "assay": "peptide made by a vendor",
  "details": "whole synthesis",
  "note": "Some peptides are written in HELM: one residue between dots, names in brackets for other building blocks, links after the first $.",
  "data": [
    {"substance": "PEPTIDE1{L.L.G.D.F.F.R.K.S.K.E.K.I.G.K.E.F.K.R.I.V.Q.R.I.K.D.F.L.R.N.L.V.P.R.T.E.S.C}$$$$V2.0", "values": [
      {"measurement": "purity (crude or final not stated)", "result": 96, "unit": "%"}
    ]}
  ]
}
